Experimental data reported in patent publication US20180066067A1 (Novartis, published 2018).
No constants are given. Whether binding was seen depends on the method and setting. For part of these data: Binding seen in cells or lysates may run through a third protein. Some results given as binding are weak or reduced against the parent protein; the word gives no strength.

Chains of the proteins cited; added tags and fusions are not shown. Lines headed by an entry give the natural chain unless they say otherwise; changes in a name come on top.
UniProt Q9ULT6: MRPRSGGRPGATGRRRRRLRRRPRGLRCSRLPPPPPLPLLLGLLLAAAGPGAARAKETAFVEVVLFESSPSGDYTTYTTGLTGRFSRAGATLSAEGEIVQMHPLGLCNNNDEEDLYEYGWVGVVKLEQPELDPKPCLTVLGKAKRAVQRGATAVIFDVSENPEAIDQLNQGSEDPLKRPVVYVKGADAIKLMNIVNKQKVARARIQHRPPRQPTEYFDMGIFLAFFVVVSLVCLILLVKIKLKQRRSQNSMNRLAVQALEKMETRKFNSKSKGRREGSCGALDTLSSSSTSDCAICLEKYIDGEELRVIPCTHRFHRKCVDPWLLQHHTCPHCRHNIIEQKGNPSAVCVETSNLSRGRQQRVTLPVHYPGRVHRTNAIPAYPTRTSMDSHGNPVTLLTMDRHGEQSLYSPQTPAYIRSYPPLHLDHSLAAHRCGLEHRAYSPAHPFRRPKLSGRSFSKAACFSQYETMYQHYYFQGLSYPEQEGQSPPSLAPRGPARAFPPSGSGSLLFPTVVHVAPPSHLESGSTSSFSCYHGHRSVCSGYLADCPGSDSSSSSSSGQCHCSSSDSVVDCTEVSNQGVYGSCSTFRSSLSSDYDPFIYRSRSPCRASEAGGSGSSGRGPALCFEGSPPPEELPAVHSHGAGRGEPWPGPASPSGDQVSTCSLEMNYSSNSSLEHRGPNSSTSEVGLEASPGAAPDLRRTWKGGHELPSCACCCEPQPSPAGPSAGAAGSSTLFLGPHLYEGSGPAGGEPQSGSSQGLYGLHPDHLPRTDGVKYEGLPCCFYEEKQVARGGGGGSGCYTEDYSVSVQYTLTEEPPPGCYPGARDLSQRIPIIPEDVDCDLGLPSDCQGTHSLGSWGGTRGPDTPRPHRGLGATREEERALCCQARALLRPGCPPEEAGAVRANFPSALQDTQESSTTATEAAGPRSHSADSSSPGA

Key:
[1] = target: ZNRF3 ECD-TM (extracellular domain-transmembrane, amino acids 1-256) (human) (UniProt Q9ULT6); assay: summary sentence on the cell-based binding assay and FIG. 9
Myc-ZNRF3 ΔRING (human) = Myc-ZNRF3 ΔRING (human) (UniProt Q9ULT6); assay: coimmunoprecipitation with anti-Myc from HEK293 lysates after RSPO1-GFP conditioned medium, anti-GFP blot
[2] = target: ZNRF3 ECD-TM (extracellular domain-transmembrane, amino acids 1-256) (human) (UniProt Q9ULT6); assay: cell-based binding assay: RSPO1-GFP conditioned medium on transfected HEK293 cells, immunofluorescence with anti-GFP and anti-Myc

Measured: binding

B1: RSPO1-GFP (ligand, UniProt Q2MKA7 21-263, looked up)
chain: SRGIKGKRQRRISAEGSQACAKGCELCSEVNGCLKCSPKLFILLERNDIRQVGVCLPSCPPGYFDARNPDMNKCIKCKIEHCEACFSHNFCTKCKEGLYLHKGRCYPACPEGSSAANGTMECSSPAQCEMSEWSPWGPCSKKQQLCGFRRGSEERTRRVLHAPVGDHAACSDTKETRRCTVRRVPCPEGQKRRKGGQGRRENANRNLARKESKEAGAGSRRRKGQQQQQQQGTVGPLTSAGPA
notes: Used as conditioned medium; The order of the parts follows the printed name; also called R-spondin 1 GFP fusion; R-spondin; not shown: GFP
binds: all assays above
